Laboratory results taken from the supplement of paper PMC8728848.
The list shows a part of the results.

Columns and labels:
Experiment in all cases: glycan array binding signal (z-score within array); higher = stronger binding
Conditions in all cases: glycan notation: IUPAC condensed, linker removed
[1] = target: Man(a1-3)[Man(a1-6)]Man(a1-6)[Man(a1-2)Man(a1-3)]Man(b1-4)GlcNAc(b1-4)GlcNAc
How it was run: (§1)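 Glycan array binding is given as a within-array Z-score, which can be read as non-binding when negative. The arrays, 3228 of them, came from the Consortium for Functional Glycomics database and were retained only where the protein sequence was available. Z-scores were averaged across arrays of the same protein sequence at different concentrations or buffers and across linkers.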

[2] = target: Man(a1-3)[Man(a1-6)]Man(a1-6)[Man(a1-3)]Man
How it was run: as §1

[3] = target: Man(a1-3)[Man(a1-6)]Man(a1-6)[Man(a1-3)]Man(b1-4)GlcNAc(b1-4)GlcNAc
How it was run: as §1

[4] = target: Man(a1-3)[Man(a1-6)]Man(b1-4)GlcNAc(b1-4)GlcNAc
How it was run: as §1

[5] = target: Man(a1-3)[Man(a1-6)]Man(b1-4)GlcNAc(b1-4)[Fuc(a1-6)]GlcNAc
How it was run: as §1

Man(a1-6)Man = target: Man(a1-6)Man
How it was run: as §1

Man(b1-4)GlcNAc = target: Man(b1-4)GlcNAc
How it was run: as §1

MurNAc(b1-4)GlcNAc = target: MurNAc(b1-4)GlcNAc
How it was run: as §1

Neu5Ac(a2-3)Gal = target: Neu5Ac(a2-3)Gal
How it was run: as §1

[6] = target: Neu5Ac(a2-3)Gal(b1-3)GalNAc
How it was run: as §1

[7] = target: Neu5Ac(a2-3)Gal(b1-3)GalNAc(b1-3)Gal(a1-4)Gal(b1-4)Glc
How it was run: as §1

[8] = target: Neu5Ac(a2-3)Gal(b1-3)GalNAc(b1-4)Gal(b1-4)Glc
How it was run: as §1

[9] = target: Neu5Ac(a2-3)Gal(b1-3)GalNAc(b1-4)[Neu5Ac(a2-3)]Gal(b1-4)Glc
How it was run: as §1

[10] = target: Neu5Ac(a2-3)Gal(b1-3)GalNAc(b1-4)[Neu5Ac(a2-8)Neu5Ac(a2-3)]Gal(b1-4)Glc
How it was run: as §1

[11] = target: Neu5Ac(a2-3)Gal(b1-3)GalNAc6S
How it was run: as §1

[12] = target: Neu5Ac(a2-3)Gal(b1-3)GlcNAc
How it was run: as §1

[13] = target: Neu5Ac(a2-3)Gal(b1-3)GlcNAc(b1-2)Man
How it was run: as §1

[14] = target: Neu5Ac(a2-3)Gal(b1-3)GlcNAc(b1-2)Man(a1-3)[GlcNAc(b1-4)][Neu5Ac(a2-3)Gal(b1-3)GlcNAc(b1-2)Man(a1-6)]Man(b1-4)GlcNAc(b1-4)GlcNAc
How it was run: as §1

[15] = target: Neu5Ac(a2-3)Gal(b1-3)GlcNAc(b1-2)Man(a1-3)[Neu5Ac(a2-3)Gal(b1-3)GlcNAc(b1-2)Man(a1-6)]Man(b1-4)GlcNAc(b1-4)GlcNAc
How it was run: as §1

[16] = target: Neu5Ac(a2-3)Gal(b1-3)GlcNAc(b1-2)[Neu5Ac(a2-3)Gal(b1-3)GlcNAc(b1-4)]Man(a1-6)[Neu5Ac(a2-3)Gal(b1-3)GlcNAc(b1-2)Man(a1-3)]Man(b1-4)GlcNAc(b1-4)GlcNAc
How it was run: as §1

[17] = target: Neu5Ac(a2-3)Gal(b1-3)GlcNAc(b1-3)Gal(b1-3)GlcNAc
How it was run: as §1

[18] = target: Neu5Ac(a2-3)Gal(b1-3)GlcNAc(b1-3)Gal(b1-4)GlcNAc
How it was run: as §1

[19] = target: Neu5Ac(a2-3)Gal(b1-3)GlcNAc(b1-3)GalNAc
How it was run: as §1

[20] = target: Neu5Ac(a2-3)Gal(b1-3)GlcNAc(b1-6)GalNAc
How it was run: as §1

[21] = target: Neu5Ac(a2-3)Gal(b1-3)GlcNAc6S
How it was run: as §1

[22] = target: Neu5Ac(a2-3)Gal(b1-3)[Fuc(a1-4)]GlcNAc
How it was run: as §1

[23] = target: Neu5Ac(a2-3)Gal(b1-3)[Fuc(a1-4)]GlcNAc(b1-3)Gal(b1-3)[Fuc(a1-4)]GlcNAc
How it was run: as §1

[24] = target: Neu5Ac(a2-3)Gal(b1-3)[Fuc(a1-4)]GlcNAc(b1-3)Gal(b1-4)[Fuc(a1-3)]GlcNAc
How it was run: as §1

[25] = target: Neu5Ac(a2-3)Gal(b1-3)[GlcNAc(b1-6)]GalNAc
How it was run: as §1

[26] = target: Neu5Ac(a2-3)Gal(b1-3)[Neu5Ac(a2-6)]GalNAc
How it was run: as §1

[27] = target: Neu5Ac(a2-3)Gal(b1-3)[Neu5Ac(a2-6)]GlcNAc(b1-3)[Fuc(a1-3)[Gal(b1-4)]GlcNAc(b1-6)]Gal(b1-4)Glc
How it was run: as §1

[28] = target: Neu5Ac(a2-3)Gal(b1-3)]Neu5Ac(a2-3)Gal(b1-4)]GlcNAc
How it was run: as §1

Neu5Ac(a2-3)Gal(b1-4)Glc = target: Neu5Ac(a2-3)Gal(b1-4)Glc
How it was run: as §1

[29] = target: Neu5Ac(a2-3)Gal(b1-4)GlcNAc
How it was run: as §1

[30] = target: Neu5Ac(a2-3)Gal(b1-4)GlcNAc(b1-2)Man
How it was run: as §1

[31] = target: Neu5Ac(a2-3)Gal(b1-4)GlcNAc(b1-2)Man(a1-3)[GlcNAc(b1-4)][Neu5Ac(a2-3)Gal(b1-4)GlcNAc(b1-2)Man(a1-6)]Man(b1-4)GlcNAc(b1-4)GlcNAc
How it was run: as §1

[32] = target: Neu5Ac(a2-3)Gal(b1-4)GlcNAc(b1-2)Man(a1-3)[Neu5Ac(a2-3)Gal(b1-4)GlcNAc(b1-2)Man(a1-6)]Man(b1-4)GlcNAc(b1-4)GlcNAc
How it was run: as §1

[33] = target: Neu5Ac(a2-3)Gal(b1-4)GlcNAc(b1-2)Man(a1-3)[Neu5Ac(a2-3)Gal(b1-4)GlcNAc(b1-2)Man(a1-6)]Man(b1-4)GlcNAc(b1-4)[Fuc(a1-6)]GlcNAc
How it was run: as §1

B1: LlpA (Arthrobacter sp) (protein)
chain: MGSSHHHHHHSSGLVPRGSHMTLHPETALRPGAAATSPNSRYRLLYQTDGNLVLYGPDGPLWDSGTNGHGAGACIMQADGNLVLYGPNDEYVWDTETDNNPGSRLVIQDDGNAVIYRPDGSPLWATETCQPPGSADSHVLQSGSTLTPTHGIRSANGLYGLLYQTDGNLVFYGPDGPLWDSGTNGRGAGACIMQPDGNLVLYGPHDEYVWDTETDNNPGSRLVIQDDGNAVIYRPDGNPTWVTGTH
glycan array binding signal (z-score) [1]: 0.429 | glycan array binding signal (z-score) [2]: 0.524 | glycan array binding signal (z-score) [3]: 0.091 | glycan array binding signal (z-score) [4]: -0.149 | glycan array binding signal (z-score) [5]: 0.031 | glycan array binding signal (z-score) (Man(a1-6)Man): -0.068 | glycan array binding signal (z-score) (Man(b1-4)GlcNAc): -0.389 | glycan array binding signal (z-score) (MurNAc(b1-4)GlcNAc): -0.798 | glycan array binding signal (z-score) (Neu5Ac(a2-3)Gal): -0.845 | glycan array binding signal (z-score) [6]: -0.725 | glycan array binding signal (z-score) [7]: -0.657 | glycan array binding signal (z-score) [8]: -1.33 | glycan array binding signal (z-score) [9]: -0.467 | glycan array binding signal (z-score) [10]: -0.752 | glycan array binding signal (z-score) [11]: -0.443 | glycan array binding signal (z-score) [12]: 0.653 | glycan array binding signal (z-score) [13]: -0.418 | glycan array binding signal (z-score) [14]: -0.024 | glycan array binding signal (z-score) [15]: -0.65 | glycan array binding signal (z-score) [16]: 1.49 | glycan array binding signal (z-score) [17]: -1.42 | glycan array binding signal (z-score) [18]: -0.694 | glycan array binding signal (z-score) [19]: -1.13 | glycan array binding signal (z-score) [20]: 0.849 | glycan array binding signal (z-score) [21]: 1.33 | glycan array binding signal (z-score) [22]: -0.881 | glycan array binding signal (z-score) [23]: 0.539 | glycan array binding signal (z-score) [24]: 0.903 | glycan array binding signal (z-score) [25]: -0.462 | glycan array binding signal (z-score) [26]: -0.644 | glycan array binding signal (z-score) [27]: 0.69 | glycan array binding signal (z-score) [28]: 0.522 | glycan array binding signal (z-score) (Neu5Ac(a2-3)Gal(b1-4)Glc): 0.556 | glycan array binding signal (z-score) [29]: 0.319 | glycan array binding signal (z-score) [30]: 1.07 | glycan array binding signal (z-score) [31]: -0.156 | glycan array binding signal (z-score) [32]: -1.12 | glycan array binding signal (z-score) [33]: 0.142
